Strings that start with PEPTIDE1 are HELM notation: dots part the residues, brackets hold end groups and non-standard residues.
Assay: peptide synthesis
Conditions: whole synthesis, HPLC peak relative integration at 225 nm, polihydrated polytrifluoroacetates

PEPTIDE1{[pTyr].V.H.V.N.A.T.[pTyr].V.N.V.K}$$$$V2.0
final HPLC purity: 95.9%

From patent publication US5912183A (Pharmacia & Upjohn S.p.A., priority 1993, dated 1999)
